Assay results taken from patent publication US6596498B1, “Bone stimulating factor” (Osteopharm Inc., priority 1993, dated 2003).
Part of at least one peptide drawing is inferred or uncertain, most often the ends. Ends that are not written are not given here.

Columns and labels:
[1] = system: parathyroidectomized rats; experiment: Bone mineral apposition rate by tetracycline labelling in parathyroidectomized rats; format: in vivo, rat; conditions: about 25 μg per day by subcutaneous miniosmotic pump, labelled from day 28; control 0.67
[2] = system: ovariectomized rats; experiment: Right femoral bone calcium density of ovariectomized rats; format: in vivo, rat; conditions: 100 μg s.c. every 24 hours for eight weeks, starting eight weeks after ovariectomization; untreated OVX 6.89, sham 7.69, intact 7.87
Experimental: Ovariectomies were performed on six female Sprague-Dawley rats, each sedated with 1 mg of sodium barbiturate I.P. Sham operations were carried out a second group of six rats. The rats were given two weeks to recover from the operations. The six ovariectomized rats were injected subcutaneously with 100 μl of a 0.1% acetic acid solution containing 100 μg of the chemically synthesized peptide (SEQ ID NO:11) every 24 hours for 28 days. […] The right femur of each rat was decalcified separately. The decalcification fluid consisted of 10% formic acid (v/v) and 5% sodium citrate (w/v) at pH 3.0. Each bone was placed in 6 ml of the decalcification fluid. The fluid was […] days, again after another 4 days, again after another 2 days, and again after another 3 days. After another 2 days, the decalcification fluid was removed and replaced by deionized water, and the sample agitated for 2 days. The water changed after two days and again after another day. […] The volume of each right femur was determined by determining the volume of water displaced when the bone was immersed in water. The calcium concentration of each sample was determined according to standard methods and the calcium density of each bone calculated. […] The right femurs were decalcified and calcium density determined as before.

For “Ac-GIGKRTNEHTADCKIKPNTLHKKAAETLMVLDQNQP [SEQ ID NO:12]”, the “bone mineral apposition rate, Mean” value [1] was 1.27 μm/d and the “Right Femoral Calcium Concentration, Mean” value [2] was 7.37 µmol/mL.
